Laboratory results reported in paper PMC7062782, “A progesterone biosensor derived from microbial screening” (Nature Communications, 2020).
For some of these results: No signal at the amounts used counts as a negative. For some of these results: At least one verdict was read from the data and is not stated in words by the source. For some of these results: Where a protein sequence is shown, tags need not be part of it. For some of these results: The comparison behind a weaker result is the experiment's own reference, which may not be listed here. Construct, isoform or probe ends are uncertain for at least one entry. For some of these results: Whether high values mean tight binding is not given here for every scale.

Legend:
[1] = molecular target: T1, SRTF1 (Pimelobacter simplex ATCC 6946) (UniProt A0A0A1DUF2); experiment: BLI; details: BLI: 28 mM Tris-HCl pH 8.0, 4.25% glycerol, 25 mM NaCl, 1.67 mg/mL BSA, 30 C, recombinant protein, protein details: C-terminal 6xHis, label: 5' biotin on strand 1
T1 sequence (looked up, limits assumed): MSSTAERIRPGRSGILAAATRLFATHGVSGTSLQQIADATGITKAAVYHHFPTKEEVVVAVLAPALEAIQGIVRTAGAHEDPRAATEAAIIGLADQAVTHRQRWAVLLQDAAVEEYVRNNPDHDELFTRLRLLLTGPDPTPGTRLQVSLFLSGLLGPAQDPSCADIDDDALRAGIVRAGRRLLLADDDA

[2] = molecular target: T1, SRTF1 (Pimelobacter simplex ATCC 6946); experiment: QD-FRET; details: QD-FRET: 1x HEPES with binding buffer (5x: 25 mM MgCl2, 25% glycerol, 250 mg/L salmon sperm DNA, 0.1 M Tris-HCl), RT, recombinant protein, protein details: C-terminal 6xHis, label: 5' and 3' Cy5 on strand 1; for IC50: progesterone titration releasing DNA (IC50 is of progesterone)
[3] = test system: SRTF1_MUT1 (Pimelobacter simplex ATCC 6946); experiment: QD-FRET; details: sensor 3 with progesterone titration (IC50 in Supplementary Table 5, value not in material); QD-FRET: 1x HEPES with binding buffer (5x: 25 mM MgCl2, 25% glycerol, 250 mg/L salmon sperm DNA, 0.1 M Tris-HCl), RT; recombinant protein; label: 5' and 3' Cy5 on strand 1

“AAATTGTCCCGGGCCTTTCTCCGCGAACTAGCCGTTCGGCTAGTTTACTC (double strand) [BLI-SRTF1o]” was tested, and the binding signal (% dissociated at 30 s) ([1]; 5 uM progesterone) was 81.
Work on “GCCTAACTAGCCGTTCGGCTAGTTATTC (double strand) [DNA1-Cy5]” yielded an IC50 ([2]; sensor 1, QD/TF/DNA 1/4/18) of 738 nM.
For “GCCTAACTAGCCGTTCTGTTAGTTATTC (double strand) [DNA2-Cy5]”, the IC50 ([2]; sensor 2, QD/TF/DNA 1/4/18) was 133 nM, the IC50 ([2]; sensor 3, QD/TF/DNA 1/1/18) was 57 nM and the binding result [3] was “binds”.
“TGTGCGTGTCCCTCGCTCGGTTTCACGA (double strand) [Scbd-Cy5]”: no binding ([2]; no response to progesterone titration).
“AAATTGTCCCGGGCCTTTCTCCGCGAACTAGCCGTTCTGTTAGTTTACTC (double strand) [BLI-SRTF1o-13,15-T,T]”: binds more weakly ([1]; no steroid, Kd in Supplementary Table 2 (value not in material)).
